# Test results published in patent US5948693A, “Solid phase synthesis of immunosuppressive agents” (Wisconsin Alumni Research Foundation, priority 1997, dated 1999).
# Part of at least one peptide drawing is inferred or uncertain, most often the ends. Where a SMILES comes first, the peptide text is derived from it. [ ]: non-standard residue; d: D form. NMeLeu(3R-OH) = CN[C@H](C(=O)O)[C@H](O)C(C)C; NMeL = CN[C@@H](CC(C)C)C(=O)O; NMeV = CN[C@H](C(=O)O)C(C)C; NMeA = CN[C@@H](C)C(=O)O; Abu = CC[C@H](N)C(=O)O; Sar = CNCC(=O)O
# What was measured:
# HIV virus = test: Inhibition of cytopathic effect due to infection by the HIV virus; assay type: cell-based
# [1] = test system: human peripheral blood monocytes (PBMCs); test: PHA-induced DNA synthesis (3H-thymidine incorporation) of PBMC's; assay type: cell-based; details: for Counts Per Minute + Std Dev: Table 5, healthy donor, PHA 1 μg/mL, 3H-thymidine, media control 40222, diluent control 32279, unstimulated 1032; for mitogen induced in vitro DNA synthesis response of human PBMCs: all the concentrations tested, 0.001 μg/mL to 10 μg/mL
# [2] = Immunosuppressive activity of preferred CsA derivative
Compound,anti-HIV activity (HIV virus),cytopathic effect resulting from infection by the HIV virus (HIV virus),immunostimulatory function (augment the PHA-induced DNA synthetic response of PBMCs) [1],Counts Per Minute + Std Dev ([1]; compound 0.001 μg/mL) [Counts Per Minute],Counts Per Minute + Std Dev ([1]; compound 0.01 μg/mL) [Counts Per Minute],Counts Per Minute + Std Dev ([1]; compound 0.1 μg/mL) [Counts Per Minute],Counts Per Minute + Std Dev ([1]; compound 1 μg/mL) [Counts Per Minute],Counts Per Minute + Std Dev ([1]; compound 10 μg/mL) [Counts Per Minute],mitogen induced in vitro DNA synthesis response of human PBMCs [1],immunosuppressive activity [2]
"CC[C@@H]1NC(=O)[C@H]([C@H](O)C(C)C)N(C)C(=O)[C@H](C(C)C)N(C)C(=O)[C@H](CC(C)C)N(C)C(=O)[C@H](CC(C)C)N(C)C(=O)[C@@H](C)NC(=O)[C@H](C)NC(=O)[C@H](C)N(C)C(=O)[C@H](C(C)C)NC(=O)[C@H](C)N(C)C(=O)CN(C)C1=O [[L--MeLeu (3-OH)^1, MeAla^4,6]--CsA, [MeLeu(3-OH)^1, MeAla^4,6]CsA] (cyclo(A[dA][NMeL][NMeL][NMeV][NMeLeu(3R-OH)][Abu][Sar][NMeA]V[NMeA]))",anti-HIV,able to inhibit cytopathic effect,able to finction as immunostimulatory agents,25773 ± 9147,23615 ± 6484,26646 ± 4236,42779 ± 3396,69959 ± 5978,augmented,non-immunosuppressive
"CC[C@@H]1NC(=O)[C@H]([C@H](O)C(C)C)N(C)C(=O)[C@@H](C(C)C)N(C)C(=O)[C@H](CC(C)C)N(C)C(=O)[C@H](CC(C)C)N(C)C(=O)[C@@H](C)NC(=O)[C@H](C)NC(=O)[C@H](CC(C)C)N(C)C(=O)[C@H](C(C)C)NC(=O)[C@H](CC(C)C)N(C)C(=O)CN(C)C1=O [[(D)-MeVal^11, MeLeu(3-OH)^1]CsA]",–,–,able to finction as immunostimulatory agents,–,–,–,–,–,augmented,–
